In patent publication EP0551434B1 (BOARD OF REGENTS THE UNIVERSITY OF TEXAS SYSTEM, priority 1990, dated 1992):
Like-named read-outs stand apart in the source and are kept apart here.

System: MCF7
Experiment: Inhibition of MCF7 breast tumor cell growth in vitro (72 hour exposure, MTT tetrazolium dye assay)
Type: cell-based
Details: Homo sapiens
Procedure: The MCF7 cell line is a human tumor cell line. This cell line was cultured in MEM( (Eagles) media in a 5% C0^2 atmosphere with 10% fetal calf serum that had been washed twice with dextran coated charcoal to reduce endogenous estrogen levels. The media was supplemented with 1 mM sodium pyruvate and 100 µm non-essential amino acids. The cell line was screened routinely for myoplasma contamination using the GenProbe kit (Fisher). Cells were trypsinized and plated at a density of 5,000 cells/well in 96 well microtiter plates and allowed to attach and recover for 24 hours.
The media was removed by aspiration and replaced with filter sterilized drug (concentration from 10-^4 M to […]) in media. The cells were incubated for 72 hours and then stained using the MTT tetrazolium dye assay of Mosmann^36 except that after the media was removed, the blue formazan product was solubilized in 50 µl/well DMSO.

CC/C(=C(\c1ccccc1)c1ccc(OCCN(C)C)cc1)c1ccccc1 [Compound I, Tamoxifen, reference compound]
IC50 (MCF7, 72 h, read-out: IC50 Dose (µM)): 1 µM | IC50 (MCF7, read-out: IC50 Dose (μM)): 1 µM
